Library screening results

The chains behind the UniProt entries cited, without tags or fusion partners.
UniProt E9BF75, entry or part of it: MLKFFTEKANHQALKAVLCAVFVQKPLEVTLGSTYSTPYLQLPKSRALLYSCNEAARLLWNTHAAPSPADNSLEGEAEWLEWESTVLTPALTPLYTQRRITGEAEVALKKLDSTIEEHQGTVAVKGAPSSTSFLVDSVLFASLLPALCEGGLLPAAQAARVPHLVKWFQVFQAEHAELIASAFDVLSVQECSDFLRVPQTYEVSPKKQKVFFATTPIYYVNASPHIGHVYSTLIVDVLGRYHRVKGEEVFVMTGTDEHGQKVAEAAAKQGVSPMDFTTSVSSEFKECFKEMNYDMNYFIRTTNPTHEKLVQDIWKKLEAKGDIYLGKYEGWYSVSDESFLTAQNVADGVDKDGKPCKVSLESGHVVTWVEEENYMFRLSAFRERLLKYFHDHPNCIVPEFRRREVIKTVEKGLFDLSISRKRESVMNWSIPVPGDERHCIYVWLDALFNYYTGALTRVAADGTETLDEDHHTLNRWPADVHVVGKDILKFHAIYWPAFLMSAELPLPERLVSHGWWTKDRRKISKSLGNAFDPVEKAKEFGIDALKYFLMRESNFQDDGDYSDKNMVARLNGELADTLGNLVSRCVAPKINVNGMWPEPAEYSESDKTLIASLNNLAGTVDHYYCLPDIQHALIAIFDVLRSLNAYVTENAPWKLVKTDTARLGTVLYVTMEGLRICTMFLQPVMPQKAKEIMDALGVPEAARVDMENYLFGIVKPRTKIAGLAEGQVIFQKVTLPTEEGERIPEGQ

Source: ChEMBL document CHEMBL3988442, “University of Dundee, Small-Polar-MMV Screening Library” (2021).

A: 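Assay on Mycobacterium tuberculosis, filed only as a heat shock assay from Cornell; the read-out is not stated. The concentration is filed as 10 mM, unlikely as a test dose, so the dose is not known. Higher reads as stronger inhibition (inferred: compounds with an IC50 in retests scored well above the rest). Size under these conditions: about 69,000 compounds, about 930 of them at 50% or above in at least one test.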
B: 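Whole-cell assay for inhibitors of Mycobacterium tuberculosis growth, labelled Cornell in the record; the read-out is not stated. The concentration is filed as 10 mM, unlikely as a test dose, so the dose is not known. The record gives no direction; compounds strong in two other growth screens of this library score well above the rest, so higher reads as stronger inhibition. About 53,000 compounds were tested under these conditions; 1.7% (about 900) showed 50% or more at least once.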
C: 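Primary screen of methionyl-tRNA synthetase; the read-out is not stated. Target: Methionyl-tRNA synthetase (putative), Leishmania donovani (UniProt E9BF75). The test concentration is not given. The values are filed as inhibition. Size under these conditions: about 68,000 compounds, about 24 of them at 50% or above in at least one test.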

Results are percentages, as filed. The controls that fix the scale are not given in the record; negative values are as filed. This is an unselected part of the compounds tested.

- Cc1nocc1C(=O)N1CCCC2(CCN(c3cnn(C)c3)C2=O)C1 (centres undefined) | A: -17.63%; B: 2.901%; C: 11.25%
- Cc1ccsc1C(=O)NC1CCN(c2cnn(C)c2)C1=O (centres undefined) | A: 2.549%; C: 9.253%
- Cc1ccsc1CN(Cc1cccnc1)C1CC(C)(C)NC(C)(C)C1 | C: 5.412%
- Cc1cnn(CC2CCCCN2C(=O)c2ccc3nncn3c2)c1 (centres undefined) | A: -0.495%; B: -11.21%; C: 11.85%
- O=C(NCc1ccccn1)[C@]12COC[C@H]1CN(Cc1ccsc1)C2 | C: 14.72%
- CN1CCC(N2CCC(CN(Cc3ccncc3)C3CCC3)CC2)CC1 | A: -17.49%; B: 24.64%; C: 7.444%
- Cc1nn(-c2ccc(C(=O)O)cc2)c2c1C(c1ccsc1)SCC(=O)N2 (centres undefined) | A: -0.6282%; B: 14.36%; C: 21.56%
- CS(=O)(=O)N1CC(=O)N(CCCc2ccccc2)CC(O)C1 (centres undefined) | A: -9.009%; B: -4.469%; C: 4.595%
- O=C(c1cccc(F)c1)N1CC[C@H]2[C@H]1CCN2CC1CCOCC1 | C: 13.74%
- Cc1nccn1-c1cncc(C2CCCN2Cc2ccccc2)n1 (centres undefined) | A: -32.16%; C: 5.412%
- COc1ccccc1C(O)CNC(=O)NCc1cccnc1OC (centres undefined) | A: 10.06%; B: -22.06%; C: 4.225%
- Cn1cc(CN2CC[C@H](O)[C@@H]2Cc2ccccc2)cn1.O=C(O)C(F)(F)F | A: -3.07%; B: -3.371%
- CN1CC2(CCCN(Cc3ccccc3OCC(=O)O)C2)OC1=O (centres undefined) | A: -12.76%; B: -39.26%; C: -18.55%
- COc1ccnc(N2CCN(C(=O)COCC(F)(F)F)CC2)n1 | A: 8.468%; C: 4.737%
- CCOCCn1nc(C)cc1C(=O)N1CC[C@@](O)(COC)C(C)(C)C1 | A: -2.215%; B: 7.365%; C: 13.38%
- CCC(CC)NC(=O)Cn1cc(C(N)=O)c(-c2ccccc2)n1 | A: -11%; B: -50%; C: -0.2688%
- O=S(=O)(CCNCc1ccc(Cl)cc1)N1CCOCC1 | A: 14.08%; B: 13.3%; C: 19.73%
- CCCN1CCN(Cc2cccc(OC(C)C)c2)[C@H]2CS(=O)(=O)C[C@H]21 | C: 8.075%
- Cc1c(C(=O)NC2CCCOC2)nnn1-c1ccccc1 (centres undefined) | A: 5.254%; B: -4.644%; C: -0.6452%
- CC(NCc1cn(CCC(N)=O)c2ccccc12)c1nncn1C (centres undefined) | A: 40.17%; B: -15.59%; C: 6.272%
- Cc1cnn(CC2CN(c3nc4ccccc4o3)CCO2)c1 (centres undefined) | A: -16.02%; C: 7.606%
- CC(C)(CNC(=O)Nc1cccc(-c2cccs2)c1)C(N)=O | A: 13.5%; B: 37.2%; C: 13.4%
- O=C(CC1CCCO1)NS(=O)(=O)Cc1cc(-c2ccccc2)no1 (centres undefined) | A: -22.61%; B: -9.482%; C: 10.9%
- Cc1cc(C)nc(Nc2cccc(C3CCCN(C(C)C)C3)n2)n1 (centres undefined) | A: -2.551%; B: -2.931%; C: 15.1%
- Cc1cccc(C)c1NC(=O)NCC1CCCN(C2CCOCC2)C1 (centres undefined) | A: 8.843%; B: 3.686%; C: 10.84%
- Cn1ccnc1CN1CCC2(CC1)CCN(Cc1ccoc1)C2 | C: 11.11%
- CNC(=O)NCC1CCC2(CCN(c3ncccn3)CC2)CO1 (centres undefined) | A: -0.7783%; B: -7.863%; C: 12.92%
- Cc1ccc(-c2nc(C(=O)N3CCCCC3CNS(C)(=O)=O)cs2)cc1 (centres undefined) | A: 7.314%; B: 5.117%; C: 9.926%
- O=C(c1cc2ccccc2[nH]1)N1CCCCC1Cn1cccn1 (centres undefined) | A: -8.655%; C: 9.639%
- COc1ccc(N(CCC(N)=O)C(=O)CSc2ccc(F)c(F)c2)cc1 | A: -8.874%; B: 21.57%; C: 11.71%